From PubChem BioAssay AID540276 (National Center for Advancing Translational Sciences (NCATS), 2011)
In all, about 300,000 compounds went through this assay and about 5,400 (1.8%) were called active. The inconclusive results got no clear call from the source; some entries with a clear call stand among them for comparison. The call rests on the fitted dose curve; tested in HEK293 cells. Potencies beside an inconclusive call are fits to weak or partial responses and may not hold up.

assay: qHTS for inhibitors of binding or entry into cells for Marburg Virus; conditions: Marburg virus pseudotyped entry inhibition, cell reporter; activity change, negative = inhibition: at 37.8 µM (top of the series) unless noted
On the % scale 0 is the no-effect control and ±100 the full control effect; potency means the concentration at half of the fitted maximal effect.

Row | Structure (SMILES) | Potency | activity change, negative = inhibition
1 | Cc1cc(C)nc(NC(=O)/C=C/c2ccc(Cl)cc2Cl)c1 | inconclusive: 35.5 µM [inhibitor, single point] | –
2 | CCOC(=O)c1ccc(NC(=S)N(CCCN2CCCC(C)C2)Cc2cccs2)cc1 (stereo unspecified) | inconclusive: 7.08 µM [inhibitor, full curve, poor fit] | –
3 | COc1ccc(NS(=O)(=O)c2cc(NC(=O)c3ccc(C)s3)ccc2N2CCOCC2)cc1 | inconclusive: 28.2 µM [inhibitor, single point] | –
4 | COc1ccc(C(=O)N/N=C(\C)CC(=O)Nc2ccccn2)cc1OC | inconclusive: 5.62 µM [activator, single point] | –
5 | COc1cc(C2(c3ccc(O)c(OC)c3)C(=O)N(C)c3ccc(C)cc32)ccc1O | inconclusive: 22.4 µM [inhibitor, single point] | –
6 | CC(C)N1CC2=C(OC(N)=C(C#N)C2c2cccnc2)/C(=C/c2cccnc2)C1 (stereo unspecified) | inactive | –
7 | COc1cccc(-n2c(SCC(N)=O)nc3c(oc4ccccc43)c2=O)c1 | inactive | –
8 | Fc1ccccc1CSc1nc2ccccc2[nH]1 | inconclusive: 12.6 µM [inhibitor, single point] | –
9 | COc1ccc(C(=O)Oc2ccc(C(c3c(C)[nH][nH]c3=O)c3c(C)[nH][nH]c3=O)cc2)cc1 | inconclusive: 5.01 µM [activator, single point] | –
10 | COc1ccc(NC(=O)c2cccs2)cc1 | inconclusive: 1.26 µM [activator, single point] | –
11 | Cc1ccc2cc(/C=N/NC(=O)CN3CCCCC3)c(Cl)nc2c1 | inconclusive: 5.62 µM [activator, single point] | –
12 | O=C(NC(=S)Nc1ccc(NC(=O)c2cccs2)cc1)c1ccco1 | inactive | –
13 | Cc1nn(-c2ccccc2)c(N2CCCC2)c1/C=N/NC(=O)c1cc(-c2ccccc2)nc2ccccc12 | inconclusive: 2 µM [inhibitor, full curve, poor fit] | –
14 | COc1ccccc1C(=O)NNC(=O)c1ccccc1F | inconclusive: 14.1 µM [inhibitor, single point] | –
15 | CCOC(=O)C(Cc1ccccc1)NC(=O)Cn1nnc(-c2ccc(SC)cc2)n1 (stereo unspecified) | inconclusive: 0.206 µM [inhibitor, full curve, poor fit] | –
16 | O=C(NCc1ccccc1F)c1cccs1 | inactive | –
17 | CCc1nonc1NC(=O)c1oc2cc(C)c(C)cc2c1C | inconclusive: 8.91 µM [activator, partial curve, poor fit] | –
18 | Cc1cc(/C=C(\C#N)C(N)=O)c(C)n1-c1ccc(N2CCOCC2)c([N+](=O)[O-])c1 | inconclusive: 35.5 µM [inhibitor, single point] | –
19 | CCN1CCN(c2ccc(S(=O)(=O)N3CCCCC3)cc2NC(=O)c2cccc(Cl)c2)CC1 | inconclusive: 22.4 µM [inhibitor, single point] | –
20 | O=C(CSc1ncccc1-c1nc2ccccc2[nH]1)Nc1ccc2c(c1)OCCO2 | inconclusive: 25.1 µM [inhibitor, single point] | –
21 | COc1ccc2c(CCNC(=O)c3ccco3)c[nH]c2c1 | inconclusive: 10 µM [activator, partial curve, poor fit] | –
22 | COC(=O)c1cc2ccsc2n1Cc1ccccc1F | inactive | –

Row | Structure (SMILES) | Potency | activity change, negative = inhibition
23 | O=C(NCc1ccccc1)c1nc2c(nnn2Cc2cccc(Cl)c2)c(=O)[nH]1 | inactive | –
24 | CC(=O)c1c(C)nn(C(=O)c2cccs2)c1C | inactive | –
25 | C/C(CC(=O)Nc1cc(C)ccn1)=N\NC(=O)c1ccccc1C | inconclusive: 31.6 µM [activator, single point] | –
26 | COc1ccc(-n2c(/C=C/c3ccc4c(c3)OCO4)nc3ccccc3c2=O)cc1 | inconclusive: 1.26 µM [activator, full curve, poor fit] | –
27 | CC(=O)c1ccc(NC(=O)c2ccc3nc(-c4ccco4)c(-c4ccco4)nc3c2)cc1 | inconclusive: 15.8 µM [inhibitor, partial curve, poor fit] | –
28 | O=C(CSc1nnc(-c2ccncc2)o1)Oc1ccccc1 | inactive | –
29 | O=C(C[C@@H](c1ccco1)S(=O)(=O)c1ccccc1)c1ccc(F)cc1 | inactive | –
30 | CCOC(=O)c1[nH]c(C)c(C(=O)/C=C/c2ccc(C(=O)O)cc2)c1C | inconclusive: 11.2 µM [inhibitor, single point] | –
31 | CCNC(=S)N/N=C/c1ccc(C#N)cc1 | inconclusive: 3.16 µM [inhibitor, partial curve] | –
32 | O=C(NCc1ccco1)C1c2ccccc2Oc2ccccc21 | – | inconclusive: 3.5% [activator]
33 | Cc1ccc(NC(=O)C2CC(=O)N(c3ccc4c(c3)OCCO4)C2)cc1S(=O)(=O)N1CCCCCC1 (stereo unspecified) | inconclusive: 8.91 µM [inhibitor, partial curve, poor fit] | –
34 | COc1cc(Br)c(C2C(C#N)=C(N)Oc3n[nH]c(-c4cccnc4)c32)cc1OC (stereo unspecified) | inconclusive: 35.5 µM [inhibitor, single point] | –
35 | COc1cccc(NC(=S)Nc2cccnc2)c1 | inactive | –
36 | O=[N+]([O-])c1ccc(NCCNCCOc2nonc2-c2ccccc2)c([N+](=O)[O-])c1 | inactive | –
37 | CN(C)c1nc(N)nc(CSc2nnnn2-c2cccc3ccccc23)n1 | inconclusive: 9.2 µM [inhibitor, partial curve] | –
38 | Cc1cc(C(=O)OCC(=O)N2CC(=O)Nc3ccccc32)c(C)n1-c1ccc(F)cc1 | inconclusive: 15.8 µM [inhibitor, single point] | –
39 | CC1CCc2c(sc(NC(=O)CSc3nc(N)cc(=O)[nH]3)c2C(N)=O)C1 (stereo unspecified) | inconclusive: 11.2 µM [inhibitor, partial curve, poor fit] | –
40 | N#Cc1c(N2CCN(C(=O)c3ccccc3)CC2)nc(-c2ccccc2)c2c1CCCC2 | inconclusive: 12.6 µM [inhibitor, partial curve, poor fit] | –
41 | Cc1cc(-c2csc3nc[nH]c(=S)c23)cc(C)c1C | inconclusive: 10 µM [inhibitor, partial curve, poor fit] | –
42 | Cc1cnc([N+](=O)[O-])n1CCOC(=O)NC(=O)c1ccc(F)cc1 | inconclusive: 35.5 µM [activator, single point] | –
43 | CCOC(=O)N/N=C/C=C/c1ccccc1 | inconclusive: 20.6 µM [activator, single point] | –
44 | CCOc1cc(CNc2ccc(S(N)(=O)=O)cc2)ccc1OCC(=O)NC(C)(C)C | inconclusive: 10 µM [inhibitor, single point] | –

Row | Structure (SMILES) | Potency | activity change, negative = inhibition
45 | COc1ccc(-c2nn(-c3ccccc3)cc2C(=O)Nc2nccs2)cc1OC | inconclusive: 35.5 µM [inhibitor, single point] | –
46 | COC(=O)C1=CN(c2ccc(F)cc2)C=C(C(=O)OC)C1c1ccc([N+](=O)[O-])cc1 | inconclusive: 35.5 µM [inhibitor, single point] | –
47 | CCN1CC(c2ccccc2)C(c2ccc(Cl)cc2)=N1 (stereo unspecified) | inconclusive: 6.31 µM [inhibitor, partial curve, poor fit] | –
48 | Oc1ccc(-c2cn3c(n2)SCC3)cc1O | inconclusive: 8.91 µM [inhibitor, partial curve, poor fit] | –
49 | CC(Sc1nnnn1C)C(=O)Nc1ccc(N2CCOCC2)cc1 (stereo unspecified) | inactive | –
50 | COc1ccc(C(=O)c2c[nH]c3ccccc23)cc1 | inconclusive: 0.562 µM [activator, full curve, poor fit] | –
51 | COc1ccc2c(c1)cc1n2CCN=C1NN | inconclusive: 3.26 µM [inhibitor, partial curve, poor fit] | –
52 | CC(C)CCC(C)NC(=O)C1CCN(S(=O)(=O)/C=C/c2ccccc2)CC1 (stereo unspecified) | inactive | –
53 | CCOC(=O)c1ccc(N2N=C(C)/C(=C/C=C/c3ccco3)C2=O)cc1 | inactive | –
54 | O=C(Nc1cccc(Cl)c1)C1CC1c1ccccc1 (stereo unspecified) | inconclusive: 11.2 µM [inhibitor, partial curve, poor fit] | –
55 | CC(C)c1ccc(S(=O)(=O)Nc2ccc(N3CCOCC3)cc2)cc1 | inconclusive: 35.5 µM [inhibitor, partial curve, poor fit] | –
56 | CCOc1ccc(NC(=O)c2ccc(OC)cc2)cc1 | inactive | –
57 | CCC(c1nnc(SCC(=O)Nc2ccc(C(=O)Nc3ccccc3OC)cc2)o1)N(C)C (stereo unspecified) | inconclusive: 22.4 µM [activator, single point] | –
58 | Cc1cc(NC(=O)COC(=O)c2c(C)c(C)c(C)c(C)c2C)no1 | inconclusive: 35.5 µM [inhibitor, single point] | –
59 | COc1ccc(OC)c(NC(=O)Cn2cc(C#N)c3cc(Br)ccc32)c1 | inactive | –
60 | O=C(c1cn(-c2ccccc2)nc1-c1cccs1)N1CCN(c2ccccc2)CC1 | inconclusive: 8.2 µM [inhibitor, partial curve, poor fit] | –
61 | CCN(CC)CCNCc1ccc(-c2ccc(Cl)cc2)o1 | inconclusive: 29.1 µM [inhibitor, single point] | –
62 | CN(C)CCn1c2c(c(SCC(=O)Nc3cccc(C(F)(F)F)c3)nc1=O)CCCC2 | inconclusive: 7.94 µM [inhibitor, partial curve, poor fit] | –
63 | O=S(=O)(N/N=C/c1ccccc1OCc1ccc(Cl)cc1)c1ccccc1 | inconclusive: 7.08 µM [inhibitor, partial curve, poor fit] | –
64 | CCCn1c(N)c(C(=O)CN(C)CC(=O)Nc2ccc(C)cc2)c(=O)[nH]c1=O | inconclusive: 22.4 µM [activator, partial curve, poor fit] | –
65 | CSc1nnc(C)c(=O)n1COC(=O)c1ccc([N+](=O)[O-])cc1 | inactive | –
66 | Cc1ccc(N2CC(C(=O)Nc3ccc4c(c3)OCCO4)CC2=O)cc1 (stereo unspecified) | inactive | –
